Data reported in PMC10244405.
These are yes or no findings as the source states them, for the method shown. Binding seen in cells or lysates may run through a third protein. Some binding calls cover weakened binding; strength is not graded here.

Target: T1, AGE receptor 1 (human (endogenous in LO2)) (UniProt P39656)
T1 sequence: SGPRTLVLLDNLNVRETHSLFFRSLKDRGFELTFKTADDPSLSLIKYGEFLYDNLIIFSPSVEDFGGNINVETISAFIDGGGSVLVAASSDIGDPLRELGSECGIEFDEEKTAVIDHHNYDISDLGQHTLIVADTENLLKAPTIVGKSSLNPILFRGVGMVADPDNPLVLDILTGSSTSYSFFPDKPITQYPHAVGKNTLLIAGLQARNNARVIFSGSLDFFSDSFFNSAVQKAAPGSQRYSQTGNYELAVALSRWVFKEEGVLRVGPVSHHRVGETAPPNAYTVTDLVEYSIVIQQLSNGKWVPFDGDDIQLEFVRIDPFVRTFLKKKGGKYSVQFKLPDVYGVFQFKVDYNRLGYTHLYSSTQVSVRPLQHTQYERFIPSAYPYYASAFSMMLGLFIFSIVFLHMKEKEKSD
Test: co-IP; antibody against AGER1 (or rabbit IgG) on Protein A/G magnetic beads; lysate of LO2 cells incubated with PA and high glucose, RIPA buffer with PMSF and protease inhibitors; rotation overnight at 4 °C; SDS-PAGE and immunoblotting

- binding: binds
B1: sirtuin 4 (protein, UniProt Q9Y6E7 29-314)
chain: IGLFVPASPPLDPEKVKELQRFITLSKRLLVMTGAGISTESGIPDYRSEKVGLYARTDRRPIQHGDFVRSAPIRQRYWARNFVGWPQFSSHQPNPAHWALSTWEKLGKLYWLVTQNVDALHTKAGSRRLTELHGCMDRVLCLDCGEQTPRGVLQERFQVLNPTWSAEAHGLAPDGDVFLSEEQVRSFQVPTCVQCGGHLKPDVVFFGDTVNPDKVDFVHKRVKEADSLLVVGSSLQVYSGYRFILTAWEKKLPIAILNIGPTRSDDLACLKLNSRCGELLPLIDPC
